Laboratory results as given in PubChem BioAssay AID272 (DTP/NCI, 2004).
The list does not hold the whole screen: it is rich in T/C values a quarter to a half above the control, in often repeated tests (any T/C) and in doses without a T/C. Further doses and runs are listed elsewhere. T/C: endpoint of the treated group in % of that of the vehicle group. Some entries give survivors of the animals treated and no T/C: the source holds a T/C of zero for them, seemingly a mark for toxic or unscored doses. Some survivor counts are full or nearly so, which does not show that the dose was tolerated: the source hardly ever lists a survival T/C far under the control, and the zero likely stands for such cases as well. Counts of survivors are from the toxicity check (mostly the fifth day) where no day follows; animals may have died later. Schedule codes are those of the source, taken here to give the interval after Q, in days (D) or hours (H), and the number of doses after X. Some doses were run more than once; the values are given in rising order. Where survival is the endpoint, this PubChem deposit counts one and a half times the control or more as active, and values a quarter to a half above the control carry no call in these data; other NCI protocols may use other cut-offs. Some T/C values are followed by the survivors on the day toxicity was checked, most often the fifth; where none is given, no animal had died by that day.

Test system: Lewis lung carcinoma i.m., BDF1 mice, T/C %
Assay: NCI In Vivo Anticancer Drug Screen. Data for tumor model Lewis Lung Carcinoma (intramuscular) in B6D2F1 (BDF1) mice
Summary of the method: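 Mice carrying transplantable tumours received test compound. Survival or tumour size was recorded and expressed as the treated-group value (T) divided by the vehicle-treated control-group value (C).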

[1] = T/C endpoint: median survival time, dose: 50.0 mg/kg/injection, schedule: Q01DX011 (ip), vehicle: saline with Tween-80, higher T/C = longer survival
[2] = T/C endpoint: median survival time, dose: 100.0 mg/kg/injection, schedule: Q01DX011 (ip), vehicle: saline with Tween-80, higher T/C = longer survival
[3] = T/C endpoint: median survival time, dose: 25.0 mg/kg/injection, schedule: Q01DX011 (ip), vehicle: saline with Tween-80, higher T/C = longer survival
[4] = T/C endpoint: median survival time, dose: 200.0 mg/kg/injection, schedule: Q01DX011 (ip), vehicle: saline, higher T/C = longer survival
[5] = T/C endpoint: median survival time, dose: 50.0 mg/kg/injection, schedule: Q01DX011 (ip), vehicle: saline, higher T/C = longer survival
[6] = T/C endpoint: median survival time, dose: 100.0 mg/kg/injection, schedule: Q01DX011 (ip), vehicle: water, higher T/C = longer survival
[7] = T/C endpoint: median survival time, dose: 200.0 mg/kg/injection, schedule: Q01DX011 (ip), vehicle: water, higher T/C = longer survival
[8] = T/C endpoint: median survival time, dose: 50.0 mg/kg/injection, schedule: Q01DX011 (ip), vehicle: water, higher T/C = longer survival

Cc1n(CC(C)C)c2c([n+]1C)C(=O)c1ccccc1C2=O
survivor count (T/C endpoint: mean tumor weight (est.), dose: 1.0 mg/kg/injection, schedule: Q01DX011 (ip), vehicle: saline with Tween-80, higher T/C = larger tumour): 3 of 8
survivor count (T/C endpoint: median survival time, dose: 1.0 mg/kg/injection, schedule: Q01DX011 (ip), vehicle: saline with Tween-80, higher T/C = longer survival): 3 of 8
survivor count (T/C endpoint: median survival time, dose: 4.0 mg/kg/injection, schedule: Q01DX011 (ip), vehicle: saline with Tween-80, higher T/C = longer survival): 0 of 8
survivor count (T/C endpoint: median survival time, dose: 8.0 mg/kg/injection, schedule: Q01DX011 (ip), vehicle: saline with Tween-80, higher T/C = longer survival): 0 of 8

CCC/C(C)=N/Nc1ccccn1
survivor count [1]: 7 of 8
survivor count [2]: 0 of 8

CC(C)NCC(O)COc1cccc2ccccc12 (centres undefined)
survivor count (T/C endpoint: median survival time, dose: 4.0 mg/kg/injection, schedule: Q01DX009 (ip), vehicle: Klucel (hydroxypropylcellulose) (HPC), higher T/C = longer survival): 10 of 10

CC(C)NCC(=O)c1ccc(O)c(O)c1
survivor count (T/C endpoint: mean tumor weight (est.), dose: 170.0 mg/kg/injection, schedule: Q01DX011 (ip), vehicle: saline, higher T/C = larger tumour): 2 of 8
survivor count (T/C endpoint: median survival time, dose: 170.0 mg/kg/injection, schedule: Q01DX011 (ip), vehicle: saline, higher T/C = longer survival): 2 of 8
survivor count (T/C endpoint: median survival time, dose: 340.0 mg/kg/injection, schedule: Q01DX011 (ip), vehicle: saline, higher T/C = longer survival): 0 of 8

NC(=O)c1cc(N2CC2)c([N+](=O)[O-])cc1[N+](=O)[O-]
survivor count (T/C endpoint: mean tumor weight, dose: 5.0 mg/kg/injection, schedule: Q01DX011 (ip), vehicle: saline with Tween-80, higher T/C = larger tumour): 5 of 8
survivor count (T/C endpoint: median survival time, dose: 5.0 mg/kg/injection, schedule: Q01DX011 (ip), vehicle: saline with Tween-80, higher T/C = longer survival): 5 of 8
survivor count (T/C endpoint: median survival time, dose: 80.0 mg/kg/injection, schedule: Q01DX011 (ip), vehicle: saline with Tween-80, higher T/C = longer survival): 1 of 8

Oc1c(Cl)cc(Cl)c2cccnc12
survivor count (T/C endpoint: mean tumor weight, dose: 25.0 mg/kg/injection, schedule: Q01DX011 (ip), vehicle: saline with Tween-80, higher T/C = larger tumour): 5 of 8
survivor count (T/C endpoint: mean tumor weight, dose: 50.0 mg/kg/injection, schedule: Q01DX011 (ip), vehicle: saline with Tween-80, higher T/C = larger tumour): 4 of 8
T/C (T/C endpoint: median survival time, dose: 12.5 mg/kg/injection, schedule: Q01DX011 (ip), vehicle: saline with Tween-80, higher T/C = longer survival): 127 % of control [6 of 8 alive]
survivor count [3]: 5 of 8
survivor count [1]: 4 of 8
survivor count [2]: 0 of 8

COc1ccc(N=O)c(O)c1
survivor count [4]: 0 of 8

CC(=O)c1c(O)c(C)c(O)c2c1OC1=CC(=O)C(C(C)=O)C(=O)C12C (centres undefined)
survivor count (T/C endpoint: median survival time, dose: 118.0 mg/kg/injection, schedule: Q01DX011 (ip), vehicle: other, higher T/C = longer survival): 8 of 8
survivor count (T/C endpoint: median survival time, dose: 266.0 mg/kg/injection, schedule: Q01DX011 (ip), vehicle: other, higher T/C = longer survival): 0 of 8
survivor count (T/C endpoint: median survival time, dose: 400.0 mg/kg/injection, schedule: Q01DX011 (ip), vehicle: other, higher T/C = longer survival): 0 of 8

C1OC1CN1CCN(CC2CO2)CC1 (centres undefined)
survivor count (T/C endpoint: median survival time, dose: 1.0 mg/kg/injection, schedule: Q01DX011 (ip), vehicle: saline, higher T/C = longer survival): 7 of 8
survivor count (T/C endpoint: median survival time, dose: 8.0 mg/kg/injection, schedule: Q01DX011 (ip), vehicle: saline, higher T/C = longer survival): 8 of 8

CC1OC(=O)C(C2OC2C)=CC1O (centres undefined)
survivor count [5]: 0 of 8

CN1Cc2c(ccc3c2OCO3)[C@@H]2[C@H](O)Cc3cc4c(cc3[C@@H]21)OCO4
survivor count (T/C endpoint: mean tumor weight, dose: 250.0 mg/kg/injection, schedule: Q01DX011 (ip), vehicle: saline, higher T/C = larger tumour): 3 of 8
survivor count (T/C endpoint: median survival time, dose: 250.0 mg/kg/injection, schedule: Q01DX011 (ip), vehicle: saline, higher T/C = longer survival): 3 of 8

Cc1nc2ccccc2nc1CBr
survivor count (T/C endpoint: mean tumor weight (est.), dose: 25.0 mg/kg/injection, schedule: Q01DX011 (ip), vehicle: saline with Tween-80, higher T/C = larger tumour): 2 of 8
survivor count [3]: 2 of 8
survivor count [1]: 0 of 8

COc1c(C)c2c(c(O)c1C/C=C(\C)CCC(=O)O)C(=O)OC2
T/C (T/C endpoint: median survival time, dose: 200.0 mg/kg/injection, schedule: Q01DX011 (ip), vehicle: saline with Tween-80, higher T/C = longer survival): 130 % of control [6 of 8 alive]
survivor count (T/C endpoint: median survival time, dose: 400.0 mg/kg/injection, schedule: Q01DX011 (ip), vehicle: saline with Tween-80, higher T/C = longer survival): 0 of 8

CS(=O)(=O)OCCC(=O)N1CCN(C(=O)CCOS(C)(=O)=O)CC1
survivor count (T/C endpoint: mean tumor weight, dose: 100.0 mg/kg/injection, schedule: Q01DX011 (ip), vehicle: saline, higher T/C = larger tumour): 5 of 8
survivor count (T/C endpoint: mean tumor weight, dose: 200.0 mg/kg/injection, schedule: Q01DX011 (ip), vehicle: saline, higher T/C = larger tumour): 1 of 8
survivor count (T/C endpoint: median survival time, dose: 50.0 mg/kg/injection, schedule: Q01DX011 (ip), vehicle: Klucel (hydroxypropylcellulose) (HPC), higher T/C = longer survival): 4 of 8
survivor count [5]: 7 of 8
survivor count (T/C endpoint: median survival time, dose: 100.0 mg/kg/injection, schedule: Q01DX011 (ip), vehicle: Klucel (hydroxypropylcellulose) (HPC), higher T/C = longer survival): 6 of 8
survivor count (T/C endpoint: median survival time, dose: 100.0 mg/kg/injection, schedule: Q01DX011 (ip), vehicle: saline, higher T/C = longer survival): 5 of 8
survivor count (T/C endpoint: median survival time, dose: 200.0 mg/kg/injection, schedule: Q01DX011 (ip), vehicle: Klucel (hydroxypropylcellulose) (HPC), higher T/C = longer survival): 0 of 8
survivor count [4]: 1 of 8
survivor count (T/C endpoint: median survival time, dose: 400.0 mg/kg/injection, schedule: Q01DX011 (ip), vehicle: Klucel (hydroxypropylcellulose) (HPC), higher T/C = longer survival): 0 of 8

O=c1[nH]c(=O)n([C@H]2CCCO2)cc1F
survivor count (T/C endpoint: median survival time, dose: 108.0 mg/kg/injection, schedule: Q01DX011 (ip), vehicle: saline, higher T/C = longer survival): 3 of 8
survivor count (T/C endpoint: median survival time, dose: 180.0 mg/kg/injection, schedule: Q01DX011 (ip), vehicle: saline, higher T/C = longer survival): 0 of 8
survivor count (T/C endpoint: median survival time, dose: 300.0 mg/kg/injection, schedule: Q01DX011 (ip), vehicle: saline, higher T/C = longer survival): 0 of 8
survivor count (T/C endpoint: median survival time, dose: 400.0 mg/kg/injection, schedule: Q04DX004 (ip), vehicle: other, higher T/C = longer survival): 8 of 8
survivor count (T/C endpoint: median survival time, dose: 800.0 mg/kg/injection, schedule: Q04DX004 (ip), vehicle: other, higher T/C = longer survival): 8 of 8

Cc1ccc2c(ccc(C)[n+]2C)c1
survivor count (T/C endpoint: mean tumor weight (est.), dose: 150.0 mg/kg/injection, schedule: Q01DX011 (ip), vehicle: saline, higher T/C = larger tumour): 1 of 8

CC1(C)N=C(N)N=C(N)N1c1ccc(CCCCc2ccc(Cl)cc2Cl)cc1
survivor count (T/C endpoint: mean tumor weight, dose: 20.0 mg/kg/injection, schedule: Q01DX011 (ip), vehicle: saline, higher T/C = larger tumour): 3 of 8
survivor count (T/C endpoint: median survival time, dose: 20.0 mg/kg/injection, schedule: Q01DX011 (ip), vehicle: saline, higher T/C = longer survival): 3 of 8

O=C1NC(O)CCN1C1OC(CO)C(O)C1O (centres undefined)
survivor count [6]: 8 of 8
survivor count [7]: 8 of 8
survivor count (T/C endpoint: median survival time, dose: 800.0 mg/kg/injection, schedule: Q01DX011 (ip), vehicle: water, higher T/C = longer survival): 8 of 8

Nc1nncs1
survivor count (T/C endpoint: mean tumor weight, dose: 100.0 mg/kg/injection, schedule: Q01DX011 (ip), vehicle: water, higher T/C = larger tumour): 3 of 8
T/C (T/C endpoint: median survival time, dose: 12.5 mg/kg/injection, schedule: Q01DX011 (ip), vehicle: water, higher T/C = longer survival): 126 % of control
T/C [8]: 135 % of control [6 of 8 alive]
survivor count [8]: 3 of 8
survivor count [6]: 0 of 8 and 3 of 8
survivor count [7]: 0 of 8 and 1 of 8
survivor count (T/C endpoint: median survival time, dose: 400.0 mg/kg/injection, schedule: Q01DX011 (ip), vehicle: water, higher T/C = longer survival): 0 of 8

S=P(N1CC1)(N1CC1)N1CC1
survivor count (T/C endpoint: median survival time, dose: 1.5 mg/kg/injection, schedule: Q01DX011 (ip), vehicle: water, higher T/C = longer survival): 0 of 10
survivor count (T/C endpoint: median survival time, dose: 6.0 mg/kg/injection, schedule: Q01DX011 (ip), vehicle: water, higher T/C = longer survival): 8 of 10
survivor count (T/C endpoint: median survival time, dose: 12.0 mg/kg/injection, schedule: Q01DX011 (ip), vehicle: water, higher T/C = longer survival): 0 of 10 and 7 of 10
survivor count (T/C endpoint: median survival time, dose: 24.0 mg/kg/injection, schedule: Q01DX011 (ip), vehicle: water, higher T/C = longer survival): 0 of 10
